Experimental data published in PubChem BioAssay (EPA / NIEHS).
The shares of active, inactive and inconclusive entries below differ from those in the screen. Potencies of inconclusive entries are doubtful fits and often do not repeat. The source made the active and inactive calls. The calls were made as follows: active = hit-call score of the fitted dose curve at least 0.9, where 1 is the maximum; inconclusive = response in the unintended direction; inactive = score below 0.9.

Chains of the proteins cited; added tags and fusions are not shown.
UniProt P10276, whole entry, looked up: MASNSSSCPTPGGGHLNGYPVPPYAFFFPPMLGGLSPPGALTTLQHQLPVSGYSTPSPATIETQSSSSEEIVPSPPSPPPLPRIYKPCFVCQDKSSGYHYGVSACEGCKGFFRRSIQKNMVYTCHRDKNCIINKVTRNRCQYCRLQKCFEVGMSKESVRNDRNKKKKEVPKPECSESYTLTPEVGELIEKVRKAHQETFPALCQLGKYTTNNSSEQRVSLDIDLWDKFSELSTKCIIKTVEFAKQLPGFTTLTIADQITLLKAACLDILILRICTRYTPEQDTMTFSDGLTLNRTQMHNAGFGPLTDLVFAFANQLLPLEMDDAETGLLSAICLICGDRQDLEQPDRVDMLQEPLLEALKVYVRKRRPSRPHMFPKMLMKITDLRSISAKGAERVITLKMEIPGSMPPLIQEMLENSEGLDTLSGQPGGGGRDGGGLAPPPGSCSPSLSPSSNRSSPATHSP

The compounds below were run against Retinoic acid receptor alpha (Homo sapiens) (UniProt P10276) (assay: ATG_RARa_TRANS: Attagene TRANS-FACTORIAL HepG2 Assay for human Retinoic Acid Receptor alpha (RARa) (AID 2283005);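 as to AC50: potency for increased reporter signal meaning RARa activation over DMSO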).
Procedure: ATG_TRANS is a cell-based, multiplexed-readout assay that uses HepG2, a human liver cell line, with measurements taken at 24 hours after chemical dosing in a 24-well plate.ATG_RARa_TRANS is one of 30 assay component(s) measured or calculated from the ATG_TRANS assay. It is designed to make measurements of mRNA induction, a form of inducible reporter, as detected with fluorescence intensity signals by Reverse transcription polymerase chain reaction (RT-PCR) and Capillary electrophoresis technology.Data from the assay component ATG_RARa_TRANS was analyzed into 1 assay endpoint. This assay endpoint, ATG_RARa_TRANS, was analyzed in the positive analysis fitting direction relative to DMSO as the negative control and baseline of activity. Using a type of inducible reporter, measures of mRNA for gain-of-signal activity can be used to understand the reporter gene at the transcription factor-level as they relate to the gene RARA. Furthermore, this assay endpoint can be referred to as a primary readout, because this assay has produced multiple assay endpoints where this one serves a reporter gene function. To generalize the intended target to other relatable targets, this assay endpoint is annotated to the nuclear receptor intended target family, where the subfamily is non-steroidal.
Human liver HepG2 cells are transiently transfected with multiple reporter transcription units (MRTUs) in 6-well plates using FuGene 6 reagent (Roche; 3 ml FuGene/1 mg DNA). The MRTU constructs are regulated by a cis-regulating element (promoter). […] A major difference between the CIS and TRANS system is that in CIS activities of endogenous TFs are measured, whereas the TRANS assay evaluates changes in activities of exogenous, chimeric NR-Gal4 proteins. […] At the end of 24 hour incubation, total RNA was isolated using TriZol reagent (Invitrogen). The isolated RNA is then reverse-transcribed using oligo(dT) primer and Mo-MLV reverse transcriptase (Invitrogen) with DNAse I (Ambion) treatment for 30 min. The one-tenth of the produced cDNA was amplified by PCR using Taq DNA polymerase (Invitrogen) and two reporter sequence-specific primers. The PCR products were fluorescently labeled by primer extension with 6-arboxyfluorescein (6-FAM) 5'-labeled reporter sequence-specific primer (2 min at 95 C, 20 s at 68 C and 10 min at 72 C) and these products were digested with 5U of HpaI (New England Biolabs) for 2h at 37 C. The fragments were purified using Qiaquick PCR columns (Qiagen), analyzed on an ABI 3130xL genetic analyzer (Applied Biosystems) with peak positions identified by using a set of X-rhodamine (ROX)-labeled MapMarker1000 molecular weight standards (BioVentures). The raw capillary electrophoresis data was processed using Attagraph software (Attagene).

SMILES | outcome | AC50
CC[N+](C)(CC)CC | inactive | –
CCCCCC/C=C\CCCCCCCC(=O)O | inactive | –
CN(c1nccc(=O)[nH]1)C1CCN(c2nc3ccccc3n2Cc2ccc(F)cc2)CC1 | inactive | –
NCC(F)(F)C(F)(F)C(F)(F)C(F)(F)C(F)(F)C(F)(F)F | inactive | –
O=C1OC(=O)c2c(Br)c(Br)c(Br)c(Br)c21 | – | inconclusive: 3.38 µM
O=CC(F)(F)C(F)(F)C(F)(F)C(F)F | – | inconclusive: 109 µM
COc1cc(CCC(=O)CC(=O)CCc2ccc(O)c(OC)c2)ccc1O | inactive | –
Cc1cnccn1 | inactive | –
CCCOc1sc(C(=O)N2CCC(c3cc(CN)ccc3F)CC2)c(C)c1Br | – | inconclusive: 0.0003 µM
CC(C)(C)CC(C)(C)c1ccc(OCCOCC[N+](C)(C)Cc2ccccc2)cc1 | – | inconclusive: 13.4 µM
CC(C)COC(=O)c1ccccc1 | – | inconclusive: 167 µM
CC1=C(Br)C(=O)C(Br)=C/C1=C(/c1ccccc1S(=O)(=O)O)c1cc(Br)c(O)c(Br)c1C | – | inconclusive: 72.5 µM
CCCCCCC(CO)CCCC (stereo not given) | inactive | –
C=CC(=O)O[C@H]1C[C@@H]2CC[C@@]1(C)C2(C)C | – | inconclusive: 5.02 µM
Cc1cc(F)ccc1-c1cc(N2CC[C@@H](O)[C@H]2CO)ncc1N(C)C(=O)C(C)(C)c1cc(C(F)(F)F)cc(C(F)(F)F)c1 | – | inconclusive: 11.4 µM
COc1ccc(CCN2CCC(Nc3nc4ccccc4n3Cc3ccc(F)cc3)CC2)cc1 | inactive | –
NC(C(F)(F)F)C(F)(F)F | – | inconclusive: 150 µM

SMILES | outcome | AC50
O=C(O)CN(CCN(CC(=O)O)CC(=O)O)CCN(CC(=O)O)CC(=O)O | inactive | –
C=Cc1ccc(OC(C)=O)cc1 | – | inconclusive: 183 µM
CNCc1ccc(NC(=O)c2c[nH]c3c2C(=O)CCC3)cc1 | inactive | –
CN(C)CCCN(C)C | inactive | –
O=S(=O)(Cl)C(F)(F)C(F)(F)C(F)(F)C(F)(F)C(F)(F)C(F)(F)C(F)(F)C(F)(F)F | inactive | –
O=C(/C=C/C=C/c1ccc2c(c1)OCO2)N1CCCCC1 | – | inconclusive: 100 µM
C=CCOC(=O)CC(C)C | – | inconclusive: 100 µM
O=[N+]([O-])c1ccccc1C(F)(F)F | inactive | –
COC(=O)c1ccc(C=O)cc1 | – | inconclusive: 105 µM
O=C(O)C(F)(F)C(F)(F)F | inactive | inconclusive: 268 µM
NNC(=O)CCCCC(=O)NN | – | inconclusive: 100 µM
O=C(Nc1ccc([N+](=O)[O-])cc1Cl)c1cc(Cl)ccc1O | inactive | –
COCC(C)OCC(C)O (stereo not given) | – | inconclusive: 178 µM
Nc1ccc(O)c(C(=O)O)c1 | – | inconclusive: 100 µM
COc1ccc(C(=O)/C(Br)=C\C(=O)O)cc1 | – | inconclusive: 100 µM
O=C(O)C(F)(F)C(F)(F)C(F)F | inactive | inconclusive: 150 µM
CN(N=O)C(=O)N[C@@H]1[C@@H](O)[C@H](O)[C@@H](CO)O[C@@H]1O | – | inconclusive: 100 µM
COC(=O)Nc1ccc(Cl)c(Cl)c1 | – | inconclusive: 100 µM

Rewritten comma-delimited: part of the list above.
SMILES,outcome,AC50
O=CC(F)(F)C(F)(F)C(F)(F)C(F)F,–,inconclusive: 109 µM
O=C(O)C(F)(F)C(F)(F)C(F)F,inactive,inconclusive: 150 µM
CN(N=O)C(=O)N[C@@H]1[C@@H](O)[C@H](O)[C@@H](CO)O[C@@H]1O,–,inconclusive: 100 µM
